# Results reported in the supplement of paper PMC8728848.
# The other results are listed elsewhere or left out.
# B1: Actd5 (Actinidia), P84527 (protein)
# chain: ISSCNGPCRDLNDCDGQLICIKGKCNDDPQVGTHICRGTTHSHQPGGCKPSGTLTCRGKSYPTYDCSPPVTSSTPAKLTNNDFSEGGDDGGPSECDESYHNNNERIVALSTGWYNGGSRCGKMIRITASNGKSVSAKVVDECDSRHGCDKEHAGQPPCRNNIVDGSNAVWSALGLDKNVGVVDITWSMA
# Legend:
# Assay in all cases: glycan array binding signal (z-score within array); higher = stronger binding
# Details in all cases: glycan notation: IUPAC condensed, linker removed
# [1] = target: Fuc(a1-2)[GalNAc(a1-3)]Gal(b1-3)GlcNAc(b1-3)GalNAc
# How it was run: (§1)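 The binding signal is a Z-score computed within each array and averaged over linkers. Arrays of the same protein sequence at different concentrations or buffers were also averaged together. Data originate from 3228 arrays in the Consortium for Functional Glycomics database, kept only where the protein sequence was available.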
# [2] = target: Fuc(a1-2)[GalNAc(a1-3)]Gal(b1-3)GlcNAc(b1-6)GalNAc
# How it was run: as §1
# [3] = target: Fuc(a1-2)[GalNAc(a1-3)]Gal(b1-4)Glc
# How it was run: as §1
# [4] = target: Fuc(a1-2)[GalNAc(a1-3)]Gal(b1-4)GlcNAc
# How it was run: as §1
# [5] = target: Fuc(a1-2)[GalNAc(a1-3)]Gal(b1-4)GlcNAc(b1-2)Man
# How it was run: as §1
# [6] = target: Fuc(a1-2)[GalNAc(a1-3)]Gal(b1-4)GlcNAc(b1-2)Man(a1-3)[Fuc(a1-2)[GalNAc(a1-3)]Gal(b1-4)GlcNAc(b1-2)Man(a1-6)]Man(b1-4)GlcNAc(b1-4)GlcNAc
# How it was run: as §1
# [7] = target: Fuc(a1-2)[GalNAc(a1-3)]Gal(b1-4)GlcNAc(b1-2)Man(a1-3)[Fuc(a1-2)[GalNAc(a1-3)]Gal(b1-4)GlcNAc(b1-2)Man(a1-6)]Man(b1-4)GlcNAc(b1-4)[Fuc(a1-6)]GlcNAc
# How it was run: as §1
# [8] = target: Fuc(a1-2)[GalNAc(a1-3)]Gal(b1-4)GlcNAc(b1-3)Gal(b1-4)GlcNAc
# How it was run: as §1
# [9] = target: Fuc(a1-2)[GalNAc(a1-3)]Gal(b1-4)GlcNAc(b1-3)Gal(b1-4)GlcNAc(b1-3)Gal(b1-4)GlcNAc
# How it was run: as §1
# [10] = target: Fuc(a1-2)[GalNAc(a1-3)]Gal(b1-4)GlcNAc(b1-3)GalNAc
# How it was run: as §1
# [11] = target: Fuc(a1-2)[GalNAc(a1-3)]Gal(b1-4)GlcNAc(b1-3)[Fuc(a1-2)[GalNAc(a1-3)]Gal(b1-4)GlcNAc(b1-6)]GalNAc
# How it was run: as §1
# [12] = target: Fuc(a1-2)[GalNAc(a1-3)]Gal(b1-4)GlcNAc(b1-6)GalNAc
# How it was run: as §1
# [13] = target: Fuc(a1-2)[GalNAc(a1-3)]Gal(b1-4)[Fuc(a1-3)]GlcNAc
# How it was run: as §1
# [14] = target: Fuc(a1-2)[GalNAc(a1-3)]Gal(b1-4)[Fuc(a1-3)]GlcNAc(b1-3)GalNAc
# How it was run: as §1
# [15] = target: Fuc(a1-2)[GalNAc(a1-4)]Gal(b1-4)GlcNAc
# How it was run: as §1
# [16] = target: Fuc(a1-2)[GalNAc(b1-3)]Gal
# How it was run: as §1
# Fuc(a1-3)GlcNAc = target: Fuc(a1-3)GlcNAc
# How it was run: as §1
# [17] = target: Fuc(a1-3)[Gal(b1-4)]Glc6S
# How it was run: as §1
# [18] = target: Fuc(a1-3)[Gal(b1-4)]GlcNAc
# How it was run: as §1
# [19] = target: Fuc(a1-3)[Gal(b1-4)]GlcNAc(b1-2)Man
# How it was run: as §1
# [20] = target: Fuc(a1-3)[Gal(b1-4)]GlcNAc(b1-2)Man(a1-3)[Fuc(a1-3)[Gal(b1-4)]GlcNAc(b1-2)Man(a1-6)]Man(b1-4)GlcNAc(b1-4)GlcNAc
# How it was run: as §1
# [21] = target: Fuc(a1-3)[Gal(b1-4)]GlcNAc(b1-2)Man(a1-3)[Fuc(a1-3)[Gal(b1-4)]GlcNAc(b1-2)Man(a1-6)]Man(b1-4)GlcNAc(b1-4)[Fuc(a1-6)]GlcNAc
# How it was run: as §1
# [22] = target: Fuc(a1-3)[Gal(b1-4)]GlcNAc(b1-3)Gal(b1-3)[Fuc(a1-4)]GlcNAc
# How it was run: as §1
# [23] = target: Fuc(a1-3)[Gal(b1-4)]GlcNAc(b1-3)Gal(b1-4)[Fuc(a1-3)]GlcNAc
# How it was run: as §1
# [24] = target: Fuc(a1-3)[Gal(b1-4)]GlcNAc(b1-3)Gal(b1-4)[Fuc(a1-3)]GlcNAc(b1-3)Gal(b1-4)[Fuc(a1-3)]GlcNAc
# How it was run: as §1
# [25] = target: Fuc(a1-3)[Gal(b1-4)]GlcNAc(b1-3)GalNAc
# How it was run: as §1
# [26] = target: Fuc(a1-3)[Gal(b1-4)]GlcNAc(b1-6)GalNAc
# How it was run: as §1
# [27] = target: Fuc(a1-3)[Gal(b1-4)]GlcNAc(b1-6)[Gal(b1-3)GlcNAc(b1-3)]Gal(b1-4)Glc
# How it was run: as §1
# [28] = target: Fuc(a1-3)[Gal(b1-4)]GlcNAc6S
# How it was run: as §1
# [29] = target: Fuc(a1-3)[Gal3S(b1-4)]Glc
# How it was run: as §1
# [30] = target: Fuc(a1-3)[Gal3S(b1-4)]GlcNAc
# How it was run: as §1
# [31] = target: Fuc(a1-3)[Gal3S(b1-4)]GlcNAc6S
# How it was run: as §1
# [32] = target: Fuc(a1-3)[GalNAc(b1-4)]GlcNAc
# How it was run: as §1
# [33] = target: Fuc(a1-3)[GalNAc(b1-4)]GlcNAc6S
# How it was run: as §1
# Fuc(a1-4)GlcNAc = target: Fuc(a1-4)GlcNAc
# How it was run: as §1
# Fuc(b1-3)GlcNAc = target: Fuc(b1-3)GlcNAc
# How it was run: as §1
# Gal(a1-2)Gal = target: Gal(a1-2)Gal
# How it was run: as §1
# Gal(a1-3)Gal = target: Gal(a1-3)Gal
# How it was run: as §1
# Gal(a1-3)Gal(b1-3)GlcNAc = target: Gal(a1-3)Gal(b1-3)GlcNAc
# How it was run: as §1
# [34] = target: Gal(a1-3)Gal(b1-3)GlcNAc(b1-2)Man
# How it was run: as §1
# [35] = target: Gal(a1-3)Gal(b1-3)GlcNAc(b1-2)Man(a1-3)[Gal(a1-3)Gal(b1-3)GlcNAc(b1-2)Man(a1-6)]Man(b1-4)GlcNAc(b1-4)GlcNAc
# How it was run: as §1
# [36] = target: Gal(a1-3)Gal(b1-3)GlcNAc(b1-3)GalNAc
# How it was run: as §1
# [37] = target: Gal(a1-3)Gal(b1-3)GlcNAc(b1-6)GalNAc
# How it was run: as §1
# [38] = target: Gal(a1-3)Gal(b1-3)[Fuc(a1-4)]GlcNAc(b1-2)Man(a1-3)[Gal(a1-3)Gal(b1-3)[Fuc(a1-4)]GlcNAc(b1-2)Man(a1-6)]Man(b1-4)GlcNAc(b1-4)GlcNAc
# How it was run: as §1
# Gal(a1-3)Gal(b1-4)Glc = target: Gal(a1-3)Gal(b1-4)Glc
# How it was run: as §1
binder,measurement,setting,value
B1,glycan array binding signal (z-score),[1],0.787
same,glycan array binding signal (z-score),[2],-0.839
same,glycan array binding signal (z-score),[3],0.588
same,glycan array binding signal (z-score),[4],-0.714
same,glycan array binding signal (z-score),[5],-0.868
same,glycan array binding signal (z-score),[6],-0.357
same,glycan array binding signal (z-score),[7],0.283
same,glycan array binding signal (z-score),[8],-0.223
same,glycan array binding signal (z-score),[9],1.72
same,glycan array binding signal (z-score),[10],-0.539
same,glycan array binding signal (z-score),[11],0.097
same,glycan array binding signal (z-score),[12],-0.865
same,glycan array binding signal (z-score),[13],-0.269
same,glycan array binding signal (z-score),[14],-0.04
same,glycan array binding signal (z-score),[15],-1.4
same,glycan array binding signal (z-score),[16],-0.456
same,glycan array binding signal (z-score),Fuc(a1-3)GlcNAc,-0.676
same,glycan array binding signal (z-score),[17],-0.095
same,glycan array binding signal (z-score),[18],-0.654
same,glycan array binding signal (z-score),[19],-1.01
same,glycan array binding signal (z-score),[20],-0.8
same,glycan array binding signal (z-score),[21],0.636
same,glycan array binding signal (z-score),[22],-1.43
same,glycan array binding signal (z-score),[23],-0.729
same,glycan array binding signal (z-score),[24],-0.828
same,glycan array binding signal (z-score),[25],-0.199
same,glycan array binding signal (z-score),[26],-0.273
same,glycan array binding signal (z-score),[27],1.2
same,glycan array binding signal (z-score),[28],0.273
same,glycan array binding signal (z-score),[29],0.128
same,glycan array binding signal (z-score),[30],0.258
same,glycan array binding signal (z-score),[31],-0.46
same,glycan array binding signal (z-score),[32],-0.759
same,glycan array binding signal (z-score),[33],-1.21
same,glycan array binding signal (z-score),Fuc(a1-4)GlcNAc,0.142
same,glycan array binding signal (z-score),Fuc(b1-3)GlcNAc,0.153
same,glycan array binding signal (z-score),Gal(a1-2)Gal,-0.933
same,glycan array binding signal (z-score),Gal(a1-3)Gal,-0.145
same,glycan array binding signal (z-score),Gal(a1-3)Gal(b1-3)GlcNAc,-0.502
same,glycan array binding signal (z-score),[34],-0.14
same,glycan array binding signal (z-score),[35],1.3
same,glycan array binding signal (z-score),[36],-0.49
same,glycan array binding signal (z-score),[37],-0.822
same,glycan array binding signal (z-score),[38],1.58
same,glycan array binding signal (z-score),Gal(a1-3)Gal(b1-4)Glc,0.021

# Quoted at random: three records from the list
binder,measurement,setting,value
B1,glycan array binding signal (z-score),[32],-0.759
same,glycan array binding signal (z-score),[3],0.588
same,glycan array binding signal (z-score),[10],-0.539
